Variants at the background level are over-represented here.
Experiments:
biotinyl-Trp-oxazolone = test: self-aminoacylation, catalytic enhancement (BWO) (fold over background); higher = more active; k-Seq, kA / k0A0; sequences stand for … in GGGAAUGGAUCCACAUCUACGAAUUC…UUCACUGCAGACUUGACGAAGCUG
In short: (§1)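 The uncatalyzed rate is the low-activity peak of a bimodal Gaussian fit, and catalytic enhancement is median kA divided by it. The kA values came from pseudo-first-order fits, with 1000 bootstraps, of per-sequence fraction reacted measured by streptavidin capture, triplicate qPCR and Illumina sequencing. Mutagenized RNA pools with a 21-nt variable region (0.43 μM) were reacted with each biotinyl-aminoacyl-oxazolone at 2–1250 μM in 50 μL HEPES/NaCl/KCl/MgCl2/CaCl2 buffer with 5% acetonitrile, pH 6.9–7.0, for 90 minutes at room temperature.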

biotinyl-Leu-oxazolone = test: self-aminoacylation, catalytic enhancement (BLO) (fold over background); higher = more active; k-Seq, kA / k0A0; sequences stand for … in GGGAAUGGAUCCACAUCUACGAAUUC…UUCACUGCAGACUUGACGAAGCUG
In short: as §1

biotinyl-Val-oxazolone = test: self-aminoacylation, catalytic enhancement (BVO) (fold over background); higher = more active; k-Seq, kA / k0A0; sequences stand for … in GGGAAUGGAUCCACAUCUACGAAUUC…UUCACUGCAGACUUGACGAAGCUG
In short: as §1

biotinyl-Ile-oxazolone = test: self-aminoacylation, catalytic enhancement (BIO) (fold over background); higher = more active; k-Seq, kA / k0A0; sequences stand for … in GGGAAUGGAUCCACAUCUACGAAUUC…UUCACUGCAGACUUGACGAAGCUG
In short: as §1

biotinyl-Met-oxazolone = test: self-aminoacylation, catalytic enhancement (BMO) (fold over background); higher = more active; k-Seq, kA / k0A0; sequences stand for … in GGGAAUGGAUCCACAUCUACGAAUUC…UUCACUGCAGACUUGACGAAGCUG
In short: as §1

biotinyl-Phe-oxazolone = test: self-aminoacylation, catalytic enhancement (BFO) (fold over background); higher = more active; k-Seq, kA / k0A0; sequences stand for … in GGGAAUGGAUCCACAUCUACGAAUUC…UUCACUGCAGACUUGACGAAGCUG
In short: as §1

Row | Sequence | self-aminoacylation (biotinyl-Trp-oxazolone) | self-aminoacylation (biotinyl-Leu-oxazolone) | self-aminoacylation (biotinyl-Val-oxazolone) | self-aminoacylation (biotinyl-Ile-oxazolone) | self-aminoacylation (biotinyl-Met-oxazolone) | self-aminoacylation (biotinyl-Phe-oxazolone)
1 | CGACACUUCAAGCAAUCCGUC [Fam1B.1 aminoacylation ribozyme variant] | 0.928 | 0.97 | 1.2 | 1.37 | 1.27 | 0.897
2 | CGACUUCACACAAUCGGUCUG [Fam1A.1 aminoacylation ribozyme variant] | 1.01 | 1.23 | 1.14 | 1.05 | 0.934 | 1.07
3 | CUAAUUCAAACAAUCGGACUG [Fam1A.1 aminoacylation ribozyme variant] | 0.816 | 0.451 | 0.464 | 0.555 | 0.43 | 1.19
4 | CUAAUUCAAGCAAUCGGUCUG [Fam1A.1 aminoacylation ribozyme variant] | 0.753 | 0.714 | 0.846 | 0.841 | 0.831 | 1.44
5 | CUAAUUCAGACAAUCGGUCUG [Fam1A.1 aminoacylation ribozyme variant] | 0.611 | 0.623 | 0.672 | 0.641 | 0.751 | 0.523
6 | CUACACAUCAAGCAAUCGGUC [Fam1B.1 aminoacylation ribozyme variant] | 0.79 | 0.682 | 0.681 | 0.799 | 0.673 | 1.21
7 | CUACACCUCAAGCAAUCGGUC [Fam1B.1 aminoacylation ribozyme variant] | 1.41 | 0.8 | 0.976 | 1.01 | 0.869 | 2.14
8 | CUACACUUCAAGCAAUCGGUU [Fam1B.1 aminoacylation ribozyme variant] | 7.05 | 1.46 | 1.27 | 1.29 | 1.47 | 9.78
9 | CUACAUCAAACAAUAGGUCUG [Fam1A.1 aminoacylation ribozyme variant] | 0.771 | 0.832 | 1.01 | 0.998 | 1.18 | 1.38
10 | CUACAUCAAACAAUCAGUCUG [Fam1A.1 aminoacylation ribozyme variant] | 0.597 | 0.572 | 0.73 | 0.75 | 0.664 | 1.39
11 | CUACAUCAAACAAUCGAUCUG [Fam1A.1 aminoacylation ribozyme variant] | 0.654 | 0.661 | 0.801 | 0.809 | 0.74 | 0.948
12 | CUACAUCAAACAAUUGGUCUG [Fam1A.1 aminoacylation ribozyme variant] | 0.87 | 1.37 | 1.12 | 1.24 | 1.33 | 1.07
13 | CUACAUCAAACAUUCGGUCUG [Fam1A.1 aminoacylation ribozyme variant] | 1.4 | 1.38 | 1.37 | 1.41 | 1.37 | 1.48
14 | CUACAUCAAUCAAUCGGUCUG [Fam1A.1 aminoacylation ribozyme variant] | 1.06 | 0.551 | 0.742 | 0.83 | 0.701 | 1.58
15 | CUACCUCAAACAAUGGGUCUG [Fam1A.1 aminoacylation ribozyme variant] | 1.38 | 1.06 | 0.988 | 1.38 | 1.07 | 1.27
16 | CUACCUCAAGCAAUCGGUCUG [Fam1A.1 aminoacylation ribozyme variant] | 1.24 | 0.991 | 1.02 | 1.02 | 0.963 | 1.26
17 | CUACGCUUCAAGCAAUCGGUC [Fam1B.1 aminoacylation ribozyme variant] | 29.9 | 1.86 | 1.06 | 0.964 | 1.14 | 59.9
18 | CUACGUCAGACAAUCGGUCUG [Fam1A.1 aminoacylation ribozyme variant] | 0.99 | 1.28 | 1.42 | 1.61 | 1.86 | 1.67
19 | CUACUAAAAACAAUCGGUCUG [Fam1A.1 aminoacylation ribozyme variant] | 0.619 | 0.561 | 0.765 | 0.741 | 0.661 | 0.696
20 | CUACUACAAACAAUCGGCCUG [Fam1A.1 aminoacylation ribozyme variant] | 0.918 | 1.63 | 1.09 | 1.36 | 1.05 | 1.03
21 | CUACUACAAACAAUUGGUCUG [Fam1A.1 aminoacylation ribozyme variant] | 0.749 | 0.92 | 0.977 | 0.978 | 0.995 | 0.799
22 | CUACUACAAAUAAUCGGUCUG [Fam1A.1 aminoacylation ribozyme variant] | 0.746 | 0.756 | 0.769 | 0.722 | 0.581 | 0.93
23 | CUACUACACACAAUCGGUCUG [Fam1A.1 aminoacylation ribozyme variant] | 0.718 | 0.768 | 0.681 | 0.846 | 0.641 | 0.948
24 | CUACUCCAAACAAUUGGUCUG [Fam1A.1 aminoacylation ribozyme variant] | 0.642 | 1.02 | 1.03 | 1.13 | 1.09 | 0.67
25 | CUACUCCAUACAAUCGGUCUG [Fam1A.1 aminoacylation ribozyme variant] | 0.549 | 0.628 | 0.751 | 0.833 | 0.719 | 0.859
26 | CUACUGCAAACAAACGGUCUG [Fam1A.1 aminoacylation ribozyme variant] | 1.29 | 0.773 | 1.01 | 0.965 | 0.932 | 0.874

Row | Sequence | self-aminoacylation (biotinyl-Trp-oxazolone) | self-aminoacylation (biotinyl-Leu-oxazolone) | self-aminoacylation (biotinyl-Val-oxazolone) | self-aminoacylation (biotinyl-Ile-oxazolone) | self-aminoacylation (biotinyl-Met-oxazolone) | self-aminoacylation (biotinyl-Phe-oxazolone)
27 | CUACUGCAAACAAUAGGUCUG [Fam1A.1 aminoacylation ribozyme variant] | 0.743 | 0.74 | 0.852 | 1.13 | 0.892 | 1.49
28 | CUACUGCAAACAAUCGGUCGG [Fam1A.1 aminoacylation ribozyme variant] | 0.862 | 0.919 | 1.04 | 0.948 | 0.978 | 0.692
29 | CUACUUAAAACAAUCGGUCUC [Fam1A.1 aminoacylation ribozyme variant] | 0.691 | 0.617 | 0.777 | 0.669 | 0.612 | 0.577
30 | CUACUUAAAACAAUCUGUCUG [Fam1A.1 aminoacylation ribozyme variant] | 0.515 | 0.667 | 0.853 | 0.77 | 0.732 | 0.721
31 | CUACUUAAAACAAUUGGUCUG [Fam1A.1 aminoacylation ribozyme variant] | 0.964 | 1.01 | 0.954 | 1.1 | 1.15 | 0.548
32 | CUACUUAAAAUAAUCGGUCUG [Fam1A.1 aminoacylation ribozyme variant] | 0.696 | 0.769 | 0.865 | 0.891 | 0.705 | 0.751
33 | CUACUUAAAGCAAUCGGUCUG [Fam1A.1 aminoacylation ribozyme variant] | 0.45 | 0.719 | 0.795 | 0.731 | 0.685 | 0.475
34 | CUACUUCAAAAAACCGGUCUG [Fam1A.1 aminoacylation ribozyme variant] | 0.764 | 0.58 | 0.802 | 0.926 | 0.781 | 0.752
35 | CUACUUCAAAAAAUCGAUCUG [Fam1A.1 aminoacylation ribozyme variant] | 0.604 | 0.6 | 0.585 | 0.663 | 0.601 | 1.46
36 | CUACUUCAAAACAUCGGUCUG [Fam1A.1 aminoacylation ribozyme variant] | 1.07 | 0.818 | 0.887 | 0.94 | 0.897 | 0.686
37 | CUACUUCAAACAAACGGUGUG [Fam1A.1 aminoacylation ribozyme variant] | 1.01 | 1.16 | 1.08 | 1.01 | 1.14 | 0.82
38 | CUACUUCAAACAACCGGUGUG [Fam1A.1 aminoacylation ribozyme variant] | 0.956 | 1.5 | 0.961 | 1.03 | 1.49 | 0.934
39 | CUACUUCAAACAAGCGGUCUC [Fam1A.1 aminoacylation ribozyme variant] | 0.752 | 0.825 | 0.842 | 0.815 | 0.837 | 1.19
40 | CUACUUCAAACAAUAGGUAUG [Fam1A.1 aminoacylation ribozyme variant] | 0.43 | 0.601 | 0.659 | 0.65 | 0.805 | 1.05
41 | CUACUUCAAACAAUCAUUCUG [Fam1A.1 aminoacylation ribozyme variant] | 1.55 | 0.513 | 0.577 | 0.616 | 0.488 | 3.72
42 | CUACUUCAAACAAUCCGCCUG [Fam1A.1 aminoacylation ribozyme variant] | 1.59 | 1.07 | 1.07 | 1.37 | 1.24 | 1.81
43 | CUACUUCAAACAAUCCGUCUU [Fam1A.1 aminoacylation ribozyme variant] | 0.691 | 0.802 | 0.862 | 0.814 | 0.764 | 0.785
44 | CUACUUCAAACAAUCGCUUUG [Fam1A.1 aminoacylation ribozyme variant] | 0.979 | 0.853 | 1.03 | 1.11 | 0.808 | 0.838
45 | CUACUUCAAACAAUCGGCCUU [Fam1A.1 aminoacylation ribozyme variant] | 1.63 | 1.6 | 1.61 | 1.64 | 1.43 | 2.48
46 | CUACUUCAAACAAUCGGGCGG [Fam1A.1 aminoacylation ribozyme variant] | 1.79 | 1.31 | 1.4 | 1.63 | 1.53 | 1.71
47 | CUACUUCAAACAAUCGUUAUG [Fam1A.1 aminoacylation ribozyme variant] | 0.59 | 0.523 | 0.627 | 0.683 | 0.48 | 0.899
48 | CUACUUCAAACAAUCUGACUG [Fam1A.1 aminoacylation ribozyme variant] | 0.58 | 0.835 | 0.746 | 0.902 | 0.786 | 1.1
49 | CUACUUCAAACAAUCUGUCGG [Fam1A.1 aminoacylation ribozyme variant] | 0.504 | 0.965 | 0.812 | 0.875 | 0.717 | 0.542
50 | CUACUUCAAACAAUCUGUCUC [Fam1A.1 aminoacylation ribozyme variant] | 0.982 | 0.638 | 0.751 | 0.659 | 0.708 | 1.64
51 | CUACUUCAAACAAUCUGUCUG [Fam1A.1 aminoacylation ribozyme variant] | 1.45 | 0.585 | 0.717 | 0.699 | 0.579 | 3.23
